Measured values published in publication PMC10185471.
No constants are given. Whether binding was seen depends on the method and setting. Binding seen in cells or lysates may run through a third protein. Some binding calls cover weakened binding; strength is not graded here.

Amino acid sequences for entries named in this document (tags omitted). A change or cut given only in a name is not applied to a line headed by its entry. Residues count along the entry.
UniProt Q9Z2G6, residues 22-790: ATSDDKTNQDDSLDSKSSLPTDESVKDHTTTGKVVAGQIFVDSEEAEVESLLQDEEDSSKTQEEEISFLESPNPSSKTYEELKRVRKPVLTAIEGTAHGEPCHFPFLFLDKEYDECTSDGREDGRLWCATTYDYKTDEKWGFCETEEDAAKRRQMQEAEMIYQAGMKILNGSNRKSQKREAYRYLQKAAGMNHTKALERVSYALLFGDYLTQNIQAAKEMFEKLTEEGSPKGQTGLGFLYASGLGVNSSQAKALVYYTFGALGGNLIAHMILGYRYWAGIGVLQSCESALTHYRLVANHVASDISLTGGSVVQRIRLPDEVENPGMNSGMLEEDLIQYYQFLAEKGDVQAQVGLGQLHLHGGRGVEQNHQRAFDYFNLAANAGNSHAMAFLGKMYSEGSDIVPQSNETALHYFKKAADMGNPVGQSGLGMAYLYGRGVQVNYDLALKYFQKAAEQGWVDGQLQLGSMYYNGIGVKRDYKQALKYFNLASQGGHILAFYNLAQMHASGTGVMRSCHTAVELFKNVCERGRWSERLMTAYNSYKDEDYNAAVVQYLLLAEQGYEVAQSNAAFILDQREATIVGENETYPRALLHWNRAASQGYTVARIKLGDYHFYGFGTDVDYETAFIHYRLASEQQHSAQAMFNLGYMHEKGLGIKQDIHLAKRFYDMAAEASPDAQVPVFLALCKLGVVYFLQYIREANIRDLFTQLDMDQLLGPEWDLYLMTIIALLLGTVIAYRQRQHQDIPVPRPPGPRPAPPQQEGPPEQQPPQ
UniProt P70302, residues 23-685: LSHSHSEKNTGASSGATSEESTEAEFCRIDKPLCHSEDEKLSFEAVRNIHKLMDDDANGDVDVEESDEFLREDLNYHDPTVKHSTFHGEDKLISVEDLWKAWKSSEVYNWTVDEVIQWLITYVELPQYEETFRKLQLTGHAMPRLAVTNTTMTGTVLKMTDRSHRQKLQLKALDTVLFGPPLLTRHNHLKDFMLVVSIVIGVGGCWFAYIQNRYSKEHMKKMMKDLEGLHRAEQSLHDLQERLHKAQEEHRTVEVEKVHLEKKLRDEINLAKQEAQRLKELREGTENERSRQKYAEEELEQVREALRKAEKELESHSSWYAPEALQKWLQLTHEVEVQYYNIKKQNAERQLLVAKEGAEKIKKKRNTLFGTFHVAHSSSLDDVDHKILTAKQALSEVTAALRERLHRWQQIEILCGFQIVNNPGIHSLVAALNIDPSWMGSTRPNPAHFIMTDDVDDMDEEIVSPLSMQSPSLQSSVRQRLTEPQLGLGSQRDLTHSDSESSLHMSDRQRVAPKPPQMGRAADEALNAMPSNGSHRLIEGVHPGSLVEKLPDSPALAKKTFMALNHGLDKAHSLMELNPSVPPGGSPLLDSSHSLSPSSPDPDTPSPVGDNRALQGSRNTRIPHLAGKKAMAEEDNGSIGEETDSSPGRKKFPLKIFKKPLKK
UniProt Q9DBY1: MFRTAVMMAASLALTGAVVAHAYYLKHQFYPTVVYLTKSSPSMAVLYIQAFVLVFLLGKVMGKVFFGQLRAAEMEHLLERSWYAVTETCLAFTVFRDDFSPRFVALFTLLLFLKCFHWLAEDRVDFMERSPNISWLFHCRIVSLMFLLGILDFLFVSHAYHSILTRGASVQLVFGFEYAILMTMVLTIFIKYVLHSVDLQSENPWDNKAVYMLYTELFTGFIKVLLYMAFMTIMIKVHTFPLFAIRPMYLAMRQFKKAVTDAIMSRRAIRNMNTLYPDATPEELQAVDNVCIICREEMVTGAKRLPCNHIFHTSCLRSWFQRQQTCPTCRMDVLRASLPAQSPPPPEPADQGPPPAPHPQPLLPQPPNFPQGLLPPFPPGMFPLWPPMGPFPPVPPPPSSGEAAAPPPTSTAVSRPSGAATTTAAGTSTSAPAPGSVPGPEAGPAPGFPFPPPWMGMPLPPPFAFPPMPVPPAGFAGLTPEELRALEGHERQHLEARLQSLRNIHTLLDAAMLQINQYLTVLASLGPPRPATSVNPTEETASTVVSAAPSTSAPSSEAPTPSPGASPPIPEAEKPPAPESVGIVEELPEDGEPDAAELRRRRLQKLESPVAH

Legend:
[1] = biological target: T1, STING (stimulator of interferon genes), endogenous, mouse (mouse (endogenous in primary macrophages and MEF)) (UniProt Q3TBT3); experiment: co-IP; immunoprecipitation of endogenous STING (antibody and Protein A agarose) from lysates of mouse primary macrophages treated with or without DMXAA for 3 h; immunoblot
T1 sequence: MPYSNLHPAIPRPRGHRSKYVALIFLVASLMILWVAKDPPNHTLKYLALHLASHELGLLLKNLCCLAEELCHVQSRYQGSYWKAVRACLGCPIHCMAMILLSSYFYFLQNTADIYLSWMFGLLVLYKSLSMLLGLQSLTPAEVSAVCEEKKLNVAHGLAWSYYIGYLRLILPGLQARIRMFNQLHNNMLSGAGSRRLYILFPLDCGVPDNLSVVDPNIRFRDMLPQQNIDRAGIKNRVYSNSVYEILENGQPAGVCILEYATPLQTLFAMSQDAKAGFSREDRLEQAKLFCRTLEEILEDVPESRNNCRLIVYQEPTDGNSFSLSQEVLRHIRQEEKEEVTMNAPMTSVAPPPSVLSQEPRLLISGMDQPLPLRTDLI

[2] = biological target: SEL1L (suppressor of lin-12-like), endogenous, mouse (mouse (endogenous in primary macrophages and RAW 264.7)) (UniProt Q9Z2G6); experiment: co-IP; immunoprecipitation of endogenous SEL1L (antibody and Protein A agarose) from lysates of mouse primary macrophages in the basal state; lysis buffer 150 mM NaCl, 1 mM EDTA, 50 mM Tris-HCl pH 7.5, 1% Triton X-100 or NP-40; 16 h at 4 °C; immunoblot; IgG control

Substance | binding [1] | binding [2]
SEL1L (suppressor of lin-12-like), endogenous, mouse (from UniProt Q9Z2G6 22-790) | binds | –
STIM1 (stromal interaction molecule 1), endogenous, mouse (from UniProt P70302 23-685) | – | no binding
HRD1 (HMG-CoA reductase degradation 1), endogenous, mouse (from UniProt Q9DBY1 1-612) | binds | binds
